Among the data in paper PMC5562876, “The integration of Gβ and MAPK signaling cascade in zygote development” (Scientific Reports, 2017) are binding values, retold here.

The target of assay [1] is T1, MKK4 (purified, pull-down) (Arabidopsis thaliana, UniProt O80397 1-366).
T1 construct: MKK4, MAP kinase kinase 4, Arabidopsis thaliana, At1G51660; source: E. coli, purified (glutathione agarose beads)
T1 sequence (looked up): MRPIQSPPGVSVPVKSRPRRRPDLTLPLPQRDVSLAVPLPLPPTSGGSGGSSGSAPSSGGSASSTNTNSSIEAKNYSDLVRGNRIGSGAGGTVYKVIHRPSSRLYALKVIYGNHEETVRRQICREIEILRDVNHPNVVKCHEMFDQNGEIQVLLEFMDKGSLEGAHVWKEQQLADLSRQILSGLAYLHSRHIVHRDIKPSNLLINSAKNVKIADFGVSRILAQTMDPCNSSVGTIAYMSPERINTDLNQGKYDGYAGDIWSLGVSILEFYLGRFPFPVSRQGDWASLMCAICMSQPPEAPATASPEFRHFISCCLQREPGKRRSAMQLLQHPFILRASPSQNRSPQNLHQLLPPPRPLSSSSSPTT
As to the kind of experiment: pull-down; purified fusion proteins from E. coli incubated with glutathione agarose beads, 25 mM Tris-HCl pH 7.5, 100 mM NaCl, 1 mM DTT, 1 hr; seven washes with 0.1% Triton X-100; eluted with 15 mM GSH; immunoblot; both purified. Background: Immunoblotting shows a protein as a band on a membrane.

Assay [2] deals with T2, MKK5 (purified, pull-down) (Arabidopsis thaliana, UniProt Q8RXG3 1-348).
T2 construct: MKK5, MAP kinase kinase 5, Arabidopsis thaliana, At3G21220; source: E. coli, purified (glutathione agarose beads)
T2 sequence (looked up): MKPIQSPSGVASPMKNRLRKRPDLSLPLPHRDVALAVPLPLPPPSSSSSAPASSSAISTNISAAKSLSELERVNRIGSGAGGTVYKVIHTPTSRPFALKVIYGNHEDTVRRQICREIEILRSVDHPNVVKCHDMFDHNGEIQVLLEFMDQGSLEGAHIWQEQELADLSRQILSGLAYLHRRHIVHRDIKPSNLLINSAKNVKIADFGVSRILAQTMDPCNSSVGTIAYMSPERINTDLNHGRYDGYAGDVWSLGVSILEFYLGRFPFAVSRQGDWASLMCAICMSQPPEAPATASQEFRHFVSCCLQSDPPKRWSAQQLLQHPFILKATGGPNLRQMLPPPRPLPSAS
Described as above.

No constants are given. Whether binding was seen depends on the method and setting.

B1: GPA1 (purified, pull-down) (natural protein, Arabidopsis thaliana, UniProt P18064 1-383, looked up)
chain: MGLLCSRSRHHTEDTDENTQAAEIERRIEQEAKAEKHIRKLLLLGAGESGKSTIFKQIKLLFQTGFDEGELKSYVPVIHANVYQTIKLLHDGTKEFAQNETDSAKYMLSSESIAIGEKLSEIGGRLDYPRLTKDIAEGIETLWKDPAIQETCARGNELQVPDCTKYLMENLKRLSDINYIPTKEDVLYARVRTTGVVEIQFSPVGENKKSGEVYRLFDVGGQRNERRKWIHLFEGVTAVIFCAAISEYDQTLFEDEQKNRMMETKELFDWVLKQPCFEKTSFMLFLNKFDIFEKKVLDVPLNVCEWFRDYQPVSSGKQEIEHAYEFVKKKFEELYYQNTAPDRVDRVFKIYRTTALDQKLVKKTFKLVDETLRRRNLLEAGLL
notes: GPA1, G protein alpha subunit, Arabidopsis thaliana, At2G26300; fusion protein; also called WtGPA1; source: E. coli, purified (glutathione agarose beads)
As for B1, the binding entry in assay [1] and in assay [2] was “no binding” each time.
